Experimental data from patent publication US7728106B2, “HIV-1 glycopeptides and derivatives; preparation and applications thereof” (University of Maryland Biotechnology Institute, priority 2005, dated 2010).
At least one peptide structure holds a part that was inferred or is arguable (an end, a ring closure or a residue).

Experiment: Circular dichroism (CD) conformational study, secondary structure calculated with K2d
Format: physicochemical
Conditions: CD at 23° C., phosphate buffer 5 mM pH 7.0, 20-40 μM; K2d software; rough estimate

SMILES: CC[C@H](C)[C@@H]1NC(=O)[C@H](CCCCN)NC(=O)CNC(=O)[C@H]([C@@H](C)CC)NC(=O)[C@H]([C@@H](C)O)NC(=O)[C@H](C(C)C)NC(=O)[C@H](Cc2ccccc2)NC(=O)[C@H](C)NC(=O)[C@H](CCCNC(=N)N)NC(=O)CNC(=O)[C@@H]2CCCN2C(=O)CNC(=O)[C@H](CCCNC(=N)N)NC(=O)[C@H](CCC(N)=O)NC(=O)[C@H]([C@@H](C)CC)NC(=O)[C@H](CCCNC(=N)N)NC(=O)[C@H]([C@@H](C)CC)NC(=O)[C@H](CCCNC(=N)N)NC(=O)[C@H](CCCCN)NC(=O)[C@H](CCCNC(=N)N)NC(=O)[C@H]([C@@H](C)O)NC(=O)[C@H](CC(N)=O)NC(=O)[C@H](CC(N)=O)NC(=O)[C@H](CC(N)=O)NC(=O)[C@@H]2CCCN2C(=O)[C@H](CCCNC(=N)N)NC(=O)[C@H]([C@@H](C)O)NC(=O)[C@@H](NC(=O)[C@H](CC(=O)N[C@@H]2O[C@H](CO)[C@@H](O[C@@H]3O[C@H](CO)[C@@H](O[C@@H]4O[C@H](CO[C@H]5O[C@H](CO)[C@@H](O)[C@H](O)[C@@H]5O)[C@@H](O)[C@H](O[C@H]5O[C@H](CO)[C@@H](O)[C@H](O)[C@@H]5O)[C@@H]4O)[C@H](O)[C@H]3NC(C)=O)[C@H](O)[C@H]2NC(C)=O)NC(=O)[C@@H](NC(=O)[C@H](CCC(=O)O)NC(=O)[C@@H](NC(=O)[C@H](CO)NC(=O)[C@@H](N)[C@@H](C)O)C(C)C)[C@@H](C)CC)CSSC[C@@H](C(=O)N[C@@H](CC(=O)N[C@@H]2O[C@H](CO)[C@@H](O[C@@H]3O[C@H](CO)[C@@H](O[C@@H]4O[C@H](CO[C@H]5O[C@H](CO)[C@@H](O)[C@H](O)[C@@H]5O)[C@@H](O)[C@H](O[C@H]5O[C@H](CO)[C@@H](O)[C@H](O)[C@@H]5O)[C@@H]4O)[C@H](O)[C@H]3NC(C)=O)[C@H](O)[C@H]2NC(C)=O)C(=O)N[C@H](C(=O)N[C@@H](CO)C(=O)N[C@@H](CCCNC(=N)N)C(=O)N[C@@H](C)C(N)=O)[C@@H](C)CC)NC(=O)[C@H](Cc2c[nH]cn2)NC(=O)[C@H](C)NC(=O)[C@H](CCC(N)=O)NC(=O)[C@H](CCCNC(=N)N)NC(=O)[C@H](CCSC)NC(=O)[C@H](CC(N)=O)NC(=O)CNC1=O [HB-V3-(G2M3)2]
- β-turn or loop structure: 39%
